Source: the supplement of paper PMC10331698
± gives the standard deviation of the averaged measurements. Small differences around the control level are noise.

How the values were obtained:
Assay in all cases: level (log10 ratio to DMSO vehicle control); higher = higher biomarker level / cell amount than vehicle control
[1] = compound: C=CC(=O)OCC(F)(F)C(F)(F)C(F)(F)C(F)(F)C(F)(F)C(F)(F)C(F)(F)C(F)F [1H,1H,9H-Perfluorononyl acrylate]; settings: 2200 nM; in DMSO
Description: (§1)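 BioMAP Diversity Plus panel of 12 human primary cell co-culture systems (3C, 4H, LPS, SAg, BT, BF4T, BE3C, CASM3C, HDF3CGF, KF3CT, MyoF, Mphg). Compounds were added 1 h before stimulation and left for 24 h (MyoF 48 h; BT 72 h for soluble read-outs or 6 d for IgG). Biomarkers were read by ELISA, cytotoxicity by SRB, PBMC viability and proliferation by Alamar Blue. Each well value was divided by the mean of 8 DMSO control wells on the same plate and log10 transformed; duplicate blinded samples were tested at 4 concentrations.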

[2] = compound: CCOC(=O)CC(=O)C(F)(F)C(F)(F)F [Ethyl pentafluoropropionyl acetate]; settings: 2200 nM; in DMSO
Description: as §1

[3] = compound: FC(F)(F)C(F)(F)C(F)(F)C(F)(F)C(F)(F)C(F)(F)C(F)(F)C(F)(F)CCS [2-(Perfluorooctyl)ethanthiol]; settings: in DMSO
Description: as §1

[4] = compound: N=C(N)C(F)(F)C(F)(F)C(F)(F)C(F)(F)C(F)(F)C(F)(F)C(F)(F)F [Perfluorooctanamidine]; settings: in DMSO
Description: as §1

[5] = compound: O=C(CC(=O)C(F)(F)C(F)(F)C(F)(F)F)c1cccs1 [(Perfluorobutyryl)-2-thenoylmethane]; settings: 2200 nM; in DMSO
Description: as §1

[6] = compound: O=C(O)C(F)(F)C(F)(F)C(F)(F)C(F)(F)C(F)(F)C(F)(F)C(F)(F)C(F)(F)C(F)(F)F [Perfluorodecanoic acid]; settings: in DMSO
Description: as §1

[7] = compound: O=C(O)C(F)(F)C(F)(F)C(F)(F)C(F)(F)C(F)(F)C(F)(F)C(F)(F)C(F)(F)F [Perfluorononanoic acid]; settings: 2200 nM; in DMSO
Description: as §1

[8] = compound: O=C(O)C(F)(F)C(F)(F)C(F)(F)C(F)(F)C(F)(F)C(F)(F)C(F)(F)F [Ammonium perfluorooctanoate]; settings: 2200 nM; in DMSO
Description: as §1

[9] = compound: O=C(O)C(F)(F)C(F)(F)C(F)(F)C(F)(F)C(F)(F)C(F)(F)C(F)(F)F [Perfluorooctanoic acid]; settings: 2200 nM; in DMSO
Description: as §1

[10] = compound: O=C(O)C(F)(F)OC(F)(F)C(F)(F)OC(F)(F)C(F)(F)OC(F)(F)C(F)(F)C(F)(F)C(F)(F)F [Perfluoro-3,6,9-trioxatridecanoic acid]; settings: 2200 nM; in DMSO
Description: as §1

[11] = compound: O=C(O)C(F)(F)OC(F)(F)C(F)(F)OC(F)(F)F [Perfluoro-3,6-dioxaheptanoic acid]; settings: 2200 nM; in DMSO
Description: as §1

[12] = compound: O=C(O)CCC(F)(C(F)(F)F)C(F)(F)F [4,4-bis(Trifluoromethyl)-4-fluoropropanoic acid]; settings: 2200 nM; in DMSO
Description: as §1

[13] = compound: OCC(F)(F)C(F)(F)C(F)(F)C(F)(F)C(F)(F)C(F)(F)C(F)(F)C(F)(F)CO [1H,1H,10H,10H-Perfluorodecane-1,10-diol]; settings: 2200 nM; in DMSO
Description: as §1

[14] = compound: OCC(F)(F)OC(F)(F)C(F)(F)OC(F)(F)C(F)(F)OC(F)(F)CO [1H,1H,11H,11H-Perfluorotetraethylene glycol]; settings: 2200 nM; in DMSO
Description: as §1

| Test System | level (log10) [1] | level (log10) [2] | level (log10) ([3]; 740 nM) | level (log10) ([3]; 2200 nM) | level (log10) ([4]; 2200 nM) | level (log10) ([4]; 6700 nM) | level (log10) ([4]; 20000 nM) | level (log10) ([4]; 60000 nM) | level (log10) [5] | level (log10) ([6]; 2200 nM) | level (log10) ([6]; 6700 nM) | level (log10) ([6]; 20000 nM) | level (log10) [7] | level (log10) [8] | level (log10) [9] | level (log10) [10] | level (log10) [11] | level (log10) [12] | level (log10) [13] | level (log10) [14] |
| --- | --- | --- | --- | --- | --- | --- | --- | --- | --- | --- | --- | --- | --- | --- | --- | --- | --- | --- | --- | --- |
| 4H:CD106/VCAM-1 | -0.002 ± 0.0042 | -0.0155 ± 0.056 | -0.009 ± 0.0014 | -0.003 ± 0.0057 | 0.003 ± 0.0028 | 0.0015 ± 0.011 | -0.028 ± 0.016 | -0.132 | -0.024 ± 0.013 | 0.037 ± 0.021 | 0.0165 ± 0.0092 | 0.0185 ± 0.029 | -0.0215 ± 0.005 | 0.047 ± 0.035 | 0.017 ± 0.0057 | -0.0165 ± 0.0021 | -0.0105 ± 0.021 | 0.012 ± 0.0042 | -0.0155 ± 0.012 | 0.042 ± 0.064 |
| MyoF:SRB | 0.002 ± 0.011 | 0.002 ± 0.0042 | 0.0015 ± 0.0064 | -0.01 ± 0.014 | 0.0075 ± 0.022 | 0.007 ± 0.0028 | -0.003 ± 0.0042 | 0.013 | 0.0105 ± 0.015 | 0.0185 ± 0.0092 | -0.033 ± 0.0014 | -0.08 ± 0.0099 | 0.0095 ± 0.013 | 0.0045 ± 0.00071 | 0.008 ± 0.017 | 0.018 ± 0.02 | 0.0035 ± 0.015 | -0.003 ± 0.0028 | -0.012 ± 0.0057 | 0 ± 0.0057 |
| BE3C:CXCL8/IL-8 | 0.0165 ± 0.043 | 0.0355 ± 0.061 | 0.0695 ± 0.16 | 0.0165 ± 0.066 | 0.0735 ± 0.029 | 0.029 ± 0.042 | -0.026 ± 0.061 | -0.034 | -0.021 ± 0.0085 | 0.0585 ± 0.019 | -0.0545 ± 0.069 | -0.577 ± 0.023 | 0.0095 ± 0.015 | 0.0435 ± 0.042 | -0.021 ± 0.092 | 0.0285 ± 0.011 | -0.0195 ± 0.0092 | 0.0135 ± 0.044 | -0.009 ± 0.061 | 0.0015 ± 0.0064 |
| BE3C:CXCL11/I-TAC | 0.009 ± 0.023 | -0.011 ± 0.027 | 0.0065 ± 0.04 | 0.015 ± 0.048 | -0.0085 ± 0.022 | -0.0055 ± 0.0078 | -0.014 ± 0.016 | -0.014 | 0.0155 ± 0.0021 | 0.0175 ± 0.011 | -0.0405 ± 0.021 | -0.849 ± 0.028 | 0.0055 ± 0.029 | 0.0105 ± 0.0078 | -0.0105 ± 0.04 | 0.046 ± 0.031 | 0.0055 ± 0.018 | 0.0105 ± 0.0035 | -0.009 ± 0.0057 | -0.0155 ± 0.019 |
| 4H:CD87/uPAR | -0.018 ± 0.023 | -0.0045 ± 0.052 | -0.0185 ± 0.025 | 0.012 ± 0.0057 | 0.077 ± 0.02 | 0.0455 ± 0.097 | 0.055 ± 0.028 | 0.146 | 0.024 ± 0.048 | -0.0085 ± 0.015 | 0.0115 ± 0.021 | 0.0135 ± 0.0092 | -0.009 ± 0.027 | 0.011 ± 0.05 | -0.0555 ± 0.029 | 0.0265 ± 0.04 | 0.0115 ± 0.047 | 0.0325 ± 0.012 | -0.019 ± 0.033 | -0.01 ± 0.1 |
| HDF3CGF:CD54/ICAM-1 | -0.0125 ± 0.0092 | -0.0195 ± 0.013 | -0.0085 ± 0.00071 | -0.0145 ± 0.012 | -0.021 ± 0.0042 | -0.0235 ± 0.0064 | -0.014 ± 0.013 | -0.072 | -0.022 ± 0.013 | -0.0155 ± 0.021 | -0.0485 ± 0.0092 | -0.071 | 0.0085 ± 0.0092 | -0.0015 ± 0.016 | 0.0095 ± 0.033 | -0.009 ± 0.0014 | 0 ± 0.0057 | 0.005 ± 0.0099 | -0.0065 ± 0.016 | 0.0115 ± 0.0078 |
